Reference: patent US8779002B2, “Methods for treating a variety of diseases and conditions, and compounds useful therefor” (Salk Institute for Biological Studies, priority 2007, dated 2014)

System: Wistar rats
Assay: Open field locomotor activity in rats
Assay type: in vivo, rat
Settings: number of lines crossed in 5 minute acclimatization period

Row | Structure (SMILES) | Fisher's PLSD for Locomotor Activity, Mean Diff. (*vehicle, treatment) (vehicle versus 5 mg/kg oral) | Fisher's PLSD for Locomotor Activity, Mean Diff. (*vehicle, treatment) (vehicle versus 10 mg/kg oral) | Fisher's PLSD for Locomotor Activity, Mean Diff. (*vehicle, treatment) (vehicle versus 25 mg/kg oral)
1 | COc1cc(/C=C/c2cc(/C=C/c3ccc(O)c(OC)c3)n(-c3ccccc3)n2)ccc1O [CNB-001] | 8.375 | −12.625 | 16.750
2 | COc1cccc(/C=N/N(C(=O)C(F)(F)F)c2ccc(C)cc2C)c1 [Compound J147] | −52.875 | −43.375 | −49.750
